PubChem BioAssay AID2685 (National Center for Advancing Translational Sciences (NCATS), 2010)
Some of the results follow. These are further read-outs of the screen, such as a control signal, another cell line or another target. No call is given for them. Compounds called inactive in the main read-out are mostly missing here. Potencies come from curve fits of mixed quality, noted in brackets.

Assay: qHTS Assay for Lipid Storage Modulators in Drosophila S3 Cells;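 for cell number change: cells counted by Cell Tracker Red CMTPX staining in the red channel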
Details: BODIPY lipid droplet fluorescence, 18-24 h; for cell number change: measured here: cell count max response, cells fed with added oleic acid
Outline: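 Drosophila S3 cells got compounds at several concentrations plus oleic acid (400 uM solution). Laser-scanning cytometry with 488 nm excitation read lipid droplets at 500-530 nm and cells at 575-640 nm. Percent activity was relative to 20 uM Triacsin C.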

[1] = measured here: lipid fluorescence (Fed channel) AC50, cells fed with added oleic acid
[2] = measured here: cell number channel AC50, cells fed with added oleic acid

Compound	cell number change [%]	AC50 [1]	AC50 [2]
COc1cc(NC(=O)CCN2CCN(Cc3ccccc3)CC2)cc(OC)c1	-10.9	16.4 µM [rising, partial curve]	–
CCOc1ccc(S(=O)(=O)N(CC(=O)O)c2ccccc2)cc1	-8.99	5.17 µM [rising, single point]	–
O=C(CSc1nnc(-c2ccncc2)n1-c1ccccc1)N1CCN(c2ccc(Cl)cc2)CC1	3.49	16.4 µM [rising, single point]	–
CC/C(=C(\c1ccc(O)cc1)c1ccc(OCCN(C)C)cc1)c1ccccc1	-48.5	23.1 µM [falling, single point]	20.6 µM [falling, single point]
COc1cc(CNCCN2CCOCC2)ccc1OCC(=O)NC(C)(C)C	12.5	–	5.8 µM [falling, partial curve]
C=CCC(NCc1ccco1)c1ccc(OC)c(OC)c1 (stereo not given)	–	0.82 µM [falling, full curve]	–
Cc1ccc(NC(=O)c2ccc3c(c2)OCCO3)cc1C	–	0.58 µM [falling, single point]	0.291 µM [rising, full curve]
COc1ccc(-c2nn3c(-c4ccccn4)nnc3s2)cc1OC	-36.2	18.4 µM [falling, partial curve, poor fit]	14.6 µM [falling, partial curve, poor fit]
Cc1cc2nc(-c3ccc(SCC(=O)N4CCOCC4)nc3)[nH]c2cc1C	–	0.13 µM [falling, full curve, poor fit]	2.91 µM [falling, partial curve, poor fit]
CCCCCOc1ccc(N2C(=O)CC(N(O)c3ccccc3)C2=O)cc1 (stereo not given)	-15	0.00411 µM [rising, full curve, poor fit]	–
O=C(Nc1ccc(Cl)c(C(F)(F)F)c1)NC1CC2CCCC(C1)N2Cc1ccccc1 (stereo not given)	-70.8	29.1 µM [falling, single point]	29.1 µM [falling, single point]
CCc1ccc(NC(=O)c2cccnc2)cc1	–	–	0.731 µM [rising, single point]
CC1=C(C(=O)OCCC(C)C)C(c2ccc3c(c2)OCO3)NC(=O)N1 (stereo not given)	-8.77	29.1 µM [falling, single point]	–
Cc1ccc(S(=O)(=O)N(C)C)cc1NC(=O)COC(=O)c1c(-c2ccccc2)noc1C	15.8	–	–
O=C(Nc1nc(-c2cccs2)cs1)c1ccc([N+](=O)[O-])o1	–	2.59 µM [falling, partial curve]	–
CC(C)CC(=O)Nc1ccc(C(=O)COC(=O)C2=COCCO2)cc1	–	0.731 µM [falling, single point]	–
Cc1ccc2sc(NC(=O)CSc3nc(C)cc(C)c3C#N)nc2c1	-68.4	20.6 µM [falling, partial curve]	23.1 µM [falling, partial curve]
Cc1ccc(C(C(=O)NCCc2ccccc2)N(C(=O)c2csnn2)C2CC2)cc1 (stereo not given)	14.1	–	–
c1ccc(CNc2nc(N3CCN(Cc4ccccc4)CC3)nc3ccccc23)cc1	-16.8	–	–
Cc1ccc(CN2CC34C=CC(O3)C(C(=O)NCc3ccc5c(c3)OCO5)C4C2=O)cc1 (stereo not given)	12.9	0.259 µM [rising, partial curve, poor fit]	–

Compound	cell number change [%]	AC50 [1]	AC50 [2]
O=C(CN1C(=O)NC2(CCCC2)C1=O)Nc1nc2ccccc2[nH]1	-10.2	23.1 µM [falling, single point]	–
COc1cccc(CN(C)C(=O)CSCC(=O)Nc2cc(C)on2)c1OC	-4.42	–	–
Cc1noc(C)c1C(=O)Nc1cc(S(=O)(=O)N2CCCCC2)ccc1N(C)C	22.5	–	–
Cc1occc1C(=O)Nc1sc2c(c1C(N)=O)CCC(C(C)(C)C)C2 (stereo not given)	31.2	–	0.92 µM [rising, full curve, poor fit]
O=[N+]([O-])c1ccc(P(=O)(Cc2ccccc2)c2ccccc2O)cc1 (stereo not given)	-25.6	10.3 µM [falling, partial curve, poor fit]	–
O=c1oc2ccccc2c2oc3cc(O)c(O)cc3c12	-6.51	–	–
COc1cccc2c1OCC/C2=N\NC(=O)COc1ccc(C)cc1	23.6	29.1 µM [rising, single point]	–
CC(OC(=O)c1ccc(Cl)nc1)C(=O)NCc1ccc2c(c1)OCO2 (stereo not given)	24.8	0.82 µM [rising, full curve]	–
Cc1ccc2[nH]c(=O)c(CN(C)C(=O)c3ccccn3)cc2c1	-0.718	6.51 µM [falling, single point]	0.92 µM [falling, full curve]
CCCN(CCC)CCCNC(=O)Cn1cnc2sc(C)c(S(=O)(=O)N3CCCCC3)c2c1=O	12.2	29.1 µM [rising, single point]	–
Cc1ccc(/C(O)=C2\C(=O)C(=O)N(CCc3c[nH]c4ccccc34)C2c2cccnc2)cc1 (stereo not given)	48	–	11.6 µM [rising, single point]
COc1cccc(CNC(=O)COC(=O)c2c(C)nn(-c3ccccc3)c2Cl)c1	5.29	32.6 µM [falling, partial curve, poor fit]	6.51 µM [rising, single point]
COc1ccc(C(=O)/C=C2\Sc3ccccc3N2C)cc1	-10.5	–	–
C/C(=N/NC(=O)CNC(=O)c1cccnc1)c1ccccc1	-54.6	–	29.1 µM [falling, single point]
CC(C)(C)c1ccc(OCCC(=O)OCC(=O)NC2CCCCC2)cc1	0.368	–	0.206 µM [falling, full curve]
CC1(C(=O)NNC(=O)c2cccc([N+](=O)[O-])c2)CC1(Br)Br (stereo not given)	-3.44	29.1 µM [rising, single point]	–
CN(C)S(=O)(=O)N1CCN(C(=O)N2CCCCCC2)CC1	15.9	–	–
COc1ccccc1CNc1ccc2c(c1)CCC2	-16.4	29.1 µM [falling, single point]	–
CCOC(=O)C(C)Sc1nnc(Cn2c(=O)sc3ccccc32)n1-c1ccccc1 (stereo not given)	14.3	0.0259 µM [rising, full curve, poor fit]	–
O=c1[nH]c(NCCO)nc2ncn(Cc3ccccc3)c12	-46.9	1.16 µM [falling, full curve]	0.206 µM [falling, full curve]

Pulled one by one from above, 2 records:
Compound	cell number change [%]	AC50 [1]	AC50 [2]
Cc1ccc(/C(O)=C2\C(=O)C(=O)N(CCc3c[nH]c4ccccc34)C2c2cccnc2)cc1 (stereo not given)	48	–	11.6 µM [rising, single point]
O=C(CN1C(=O)NC2(CCCC2)C1=O)Nc1nc2ccccc2[nH]1	-10.2	23.1 µM [falling, single point]	–

Additional structures

Compound	cell number change [%]	AC50 [1]	AC50 [2]
CCN(c1ccccc1)S(=O)(=O)c1ccc(OC)c(NC(=O)c2ccccc2OC)c1	41	–	11.6 µM [rising, partial curve, poor fit]
Cc1ccc([N+](=O)[O-])cc1S(=O)(=O)N1CCNCC1	-33.9	6.51 µM [falling, single point]	–
O=C(Nc1nnc(C2COc3ccccc3O2)o1)c1ccc(F)cc1 (stereo not given)	2.87	23.1 µM [falling, single point]	–
O=C(Nc1cccnc1)Nc1ccccn1	17.8	0.291 µM [rising, full curve, poor fit]	–
CC(C)(C)OC(=O)N[C@H](C(=O)OC(C)(C)C)c1ccc(C(F)(F)F)cc1	-20.8	0.116 µM [falling, full curve, poor fit]	0.146 µM [falling, full curve, poor fit]
CSc1ccc(C(=O)C2CCCN(C(=O)c3nonc3C)C2)cc1 (stereo not given)	-0.463	–	–
Cc1cc(C)nc(N2CCCC(C(=O)NC(C)C)C2)n1 (stereo not given)	14	–	0.092 µM [falling, full curve, poor fit]
COc1cc(OC)nc(NC(C)=O)n1	42.6	29.1 µM [rising, partial curve]	29.1 µM [rising, single point]
Cc1ccc(O)c(C(=O)c2cnc3c(c2)CN(CCC(C)C)C(=O)N3)c1	-36.7	–	2.59 µM [falling, partial curve]
CCCCNC(=O)CCCCn1c(=S)[nH]c2c([nH]c3ccc(OC)cc32)c1=O	-18.8	7.31 µM [falling, partial curve]	–
Cc1csc2c(C#N)c(=O)c3c(n12)CCC3	11.1	16.4 µM [rising, partial curve]	–
Cc1ccc(CNC(=O)c2ccc(NS(=O)(=O)c3cccs3)cc2)cc1	25.2	29.1 µM [rising, single point]	–
COc1cccc(Oc2ccc(C(F)(F)F)cc2N)c1	-28.3	29.1 µM [falling, single point]	–
CN(C)C=NC(=O)c1[nH]c2ccc(Cl)cc2c1-c1ccccc1	-52.8	–	13 µM [falling, partial curve]
CCOC(=O)N1CCN(C(=O)C2CCC(CNS(=O)(=O)c3ccccc3)CC2)CC1 (stereo not given)	-2.45	2.06 µM [rising, partial curve, poor fit]	1.84 µM [rising, partial curve, poor fit]
CNC(=S)N1N=C(c2ccc(C)cc2)CC1c1ccc(Br)cc1 (stereo not given)	56.9	2.59 µM [rising, partial curve, poor fit]	8.2 µM [rising, partial curve, poor fit]
O=C(NCc1cccnc1)c1ccc(Cl)c(S(=O)(=O)Nc2ccccc2C(=O)NCc2cccnc2)c1	8.09	0.517 µM [falling, full curve, poor fit]	–
CN(C)S(=O)(=O)n1cnc(C(CCO)c2ncn(S(=O)(=O)N(C)C)c2CCCO)c1 (stereo not given)	27	11.6 µM [rising, single point]	–
O=C(Cn1cnc2cc([N+](=O)[O-])ccc2c1=O)Nc1ccc2c(c1)CCC2	–	–	0.184 µM [rising, full curve]
